{"sequences": {"note": "Protein sequences, listed by entry. Tags and fused reporters are not part of them.", "UniProt Q92830": "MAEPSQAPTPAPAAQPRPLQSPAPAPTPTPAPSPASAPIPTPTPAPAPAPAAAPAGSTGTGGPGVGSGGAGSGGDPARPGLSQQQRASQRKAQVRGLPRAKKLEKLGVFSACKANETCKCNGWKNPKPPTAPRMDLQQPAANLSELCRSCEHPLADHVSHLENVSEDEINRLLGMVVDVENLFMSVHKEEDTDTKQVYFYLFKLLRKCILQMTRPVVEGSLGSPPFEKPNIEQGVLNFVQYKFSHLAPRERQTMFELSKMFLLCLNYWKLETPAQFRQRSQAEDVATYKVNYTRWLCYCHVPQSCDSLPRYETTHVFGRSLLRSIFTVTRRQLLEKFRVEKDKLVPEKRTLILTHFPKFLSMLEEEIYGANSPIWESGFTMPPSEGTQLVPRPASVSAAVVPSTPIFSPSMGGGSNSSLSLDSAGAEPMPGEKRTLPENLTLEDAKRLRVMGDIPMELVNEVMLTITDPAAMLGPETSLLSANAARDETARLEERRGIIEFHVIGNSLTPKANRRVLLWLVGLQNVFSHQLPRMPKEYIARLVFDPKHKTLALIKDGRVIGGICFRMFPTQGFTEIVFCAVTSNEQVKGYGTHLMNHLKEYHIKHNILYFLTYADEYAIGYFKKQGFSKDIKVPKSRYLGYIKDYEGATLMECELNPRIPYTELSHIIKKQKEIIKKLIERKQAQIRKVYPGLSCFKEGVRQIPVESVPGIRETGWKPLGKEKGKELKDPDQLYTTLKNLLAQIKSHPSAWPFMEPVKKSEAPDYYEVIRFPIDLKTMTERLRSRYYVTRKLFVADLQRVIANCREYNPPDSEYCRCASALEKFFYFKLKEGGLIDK"}, "source": "paper PMC8219694", "molecular_target": "T1, Peroxisome proliferator-activated receptor gamma coactivator 1-alpha (human (endogenous in PANC-1 and SW1990)) (UniProt Q9UBK2)", "T1 sequence": "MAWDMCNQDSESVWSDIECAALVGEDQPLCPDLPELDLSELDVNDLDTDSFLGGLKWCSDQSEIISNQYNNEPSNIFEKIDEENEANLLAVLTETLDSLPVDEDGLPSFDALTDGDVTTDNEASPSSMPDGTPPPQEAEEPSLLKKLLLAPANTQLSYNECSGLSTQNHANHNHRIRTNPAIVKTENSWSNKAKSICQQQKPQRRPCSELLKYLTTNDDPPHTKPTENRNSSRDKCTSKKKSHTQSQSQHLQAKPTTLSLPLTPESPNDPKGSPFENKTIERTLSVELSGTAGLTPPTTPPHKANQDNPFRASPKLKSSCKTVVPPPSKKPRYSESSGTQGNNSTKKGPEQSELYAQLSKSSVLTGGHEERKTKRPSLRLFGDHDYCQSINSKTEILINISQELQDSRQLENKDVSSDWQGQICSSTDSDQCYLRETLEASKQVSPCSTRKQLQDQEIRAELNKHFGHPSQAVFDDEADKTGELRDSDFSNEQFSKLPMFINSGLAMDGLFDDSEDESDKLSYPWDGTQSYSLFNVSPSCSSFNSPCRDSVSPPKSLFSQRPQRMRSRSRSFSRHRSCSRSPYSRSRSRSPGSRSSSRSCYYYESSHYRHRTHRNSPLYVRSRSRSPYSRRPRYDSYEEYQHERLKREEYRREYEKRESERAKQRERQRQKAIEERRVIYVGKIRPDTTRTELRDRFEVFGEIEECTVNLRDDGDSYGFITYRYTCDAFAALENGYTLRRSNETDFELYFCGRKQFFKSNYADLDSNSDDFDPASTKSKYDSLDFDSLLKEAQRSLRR", "assay": "co-IP; lysates of PDAC cells (PANC-1, SW1990) in IP lysis buffer with 5 mM nicotinamide and 5 μM trichostatin A; antibodies cross-linked to Protein A/G magnetic beads, 1 h at room temperature; reciprocal IP for PGC-1α and SIRT1; cells with LINC00842 overexpression or silencing, RNase A or RNase III treatment, 5 or 25 mM glucose for 4 h", "note": "Results are given in words; binding and its absence hold for the method and conditions named. In cells and extracts the contact can be indirect. Some binding calls cover weakened binding; strength is not graded here.", "data": [{"substance": "PGC-1α acetyltransferase KAT2A (also named GCN5) (from UniProt Q92830 1-837) (enzyme)", "values": [{"measurement": "binding", "result": "binds"}]}]}
